Reference: PMC9525722
Results are given in words; binding and its absence hold for the method and conditions named. In cells and extracts the contact can be indirect. Some entries that bind do so weakly or less than the wild type.

The chains behind the UniProt entries cited, without tags or fusion partners.
UniProt Q00613: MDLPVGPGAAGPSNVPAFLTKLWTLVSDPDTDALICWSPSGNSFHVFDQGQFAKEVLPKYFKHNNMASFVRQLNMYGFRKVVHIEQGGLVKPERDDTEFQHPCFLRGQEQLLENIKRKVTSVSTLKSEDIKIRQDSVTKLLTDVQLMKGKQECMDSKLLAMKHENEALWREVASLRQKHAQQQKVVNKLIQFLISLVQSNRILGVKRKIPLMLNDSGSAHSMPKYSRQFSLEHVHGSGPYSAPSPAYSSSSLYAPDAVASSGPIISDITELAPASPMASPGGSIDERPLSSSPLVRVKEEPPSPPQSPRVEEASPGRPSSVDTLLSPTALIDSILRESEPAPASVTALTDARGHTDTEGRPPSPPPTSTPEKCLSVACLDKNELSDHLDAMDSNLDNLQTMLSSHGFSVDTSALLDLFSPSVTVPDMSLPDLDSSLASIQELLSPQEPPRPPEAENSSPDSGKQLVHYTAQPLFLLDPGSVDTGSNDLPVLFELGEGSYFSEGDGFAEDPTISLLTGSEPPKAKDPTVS
UniProt P31749: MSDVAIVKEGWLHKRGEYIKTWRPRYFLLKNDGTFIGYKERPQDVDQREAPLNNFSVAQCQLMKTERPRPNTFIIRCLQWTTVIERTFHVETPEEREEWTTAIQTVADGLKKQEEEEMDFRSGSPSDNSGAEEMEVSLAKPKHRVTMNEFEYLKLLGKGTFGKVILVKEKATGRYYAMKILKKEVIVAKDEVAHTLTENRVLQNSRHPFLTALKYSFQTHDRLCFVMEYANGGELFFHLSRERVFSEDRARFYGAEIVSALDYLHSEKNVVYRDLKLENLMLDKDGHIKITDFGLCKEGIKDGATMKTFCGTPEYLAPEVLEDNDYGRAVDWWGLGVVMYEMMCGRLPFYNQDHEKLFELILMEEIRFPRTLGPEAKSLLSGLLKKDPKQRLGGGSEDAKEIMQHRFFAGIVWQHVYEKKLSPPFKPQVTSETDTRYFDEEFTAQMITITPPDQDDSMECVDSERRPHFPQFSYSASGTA

Molecular target: HSF1 (human (endogenous in HUVECs)) (UniProt Q00613)
Assay: co-IP; nuclear extracts and cytosol of HUVECs (Ctrl, PE, PE + TMZ, PE + TMZ + Akt inhibitor AZD5363); pre-cleared lysate with primary antibody at 4 °C overnight, protein A/G agarose beads; blots for HSF1, Akt and p-Akt

Substance | binding
Akt (from UniProt P31749 1-480) | binds
p-Akt (from UniProt P31749 1-480) | binds
